# These are yes or no findings as the source states them, for the method shown. Binding seen in cells or lysates may run through a third protein. These calls come from enrichment with a bait or labelling near it, and not all partners need be listed.
# Chains of the proteins cited; added tags and fusions are not shown. Residues count along the entry.
# UniProt O15169: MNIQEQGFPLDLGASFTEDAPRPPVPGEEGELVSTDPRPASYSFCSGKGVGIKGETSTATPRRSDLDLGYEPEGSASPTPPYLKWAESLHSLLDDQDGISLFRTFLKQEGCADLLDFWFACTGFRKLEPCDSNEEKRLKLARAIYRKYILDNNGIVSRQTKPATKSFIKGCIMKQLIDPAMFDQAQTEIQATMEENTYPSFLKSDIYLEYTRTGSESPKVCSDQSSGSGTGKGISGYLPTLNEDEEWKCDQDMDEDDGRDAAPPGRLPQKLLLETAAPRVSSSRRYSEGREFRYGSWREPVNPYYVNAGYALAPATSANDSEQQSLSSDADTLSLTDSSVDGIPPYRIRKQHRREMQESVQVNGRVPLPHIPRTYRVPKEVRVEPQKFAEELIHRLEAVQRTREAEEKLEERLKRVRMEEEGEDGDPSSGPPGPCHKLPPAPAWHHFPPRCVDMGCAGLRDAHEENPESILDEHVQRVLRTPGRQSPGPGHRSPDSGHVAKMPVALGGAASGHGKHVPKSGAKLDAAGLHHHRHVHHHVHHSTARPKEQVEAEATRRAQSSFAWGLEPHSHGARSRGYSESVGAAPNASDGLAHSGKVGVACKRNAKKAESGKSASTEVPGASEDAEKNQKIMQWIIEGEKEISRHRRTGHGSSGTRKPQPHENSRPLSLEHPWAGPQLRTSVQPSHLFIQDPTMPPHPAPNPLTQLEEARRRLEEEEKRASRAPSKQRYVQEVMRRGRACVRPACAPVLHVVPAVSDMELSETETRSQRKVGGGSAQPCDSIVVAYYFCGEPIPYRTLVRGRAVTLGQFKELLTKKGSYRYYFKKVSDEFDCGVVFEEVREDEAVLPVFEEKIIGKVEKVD
# UniProt Q01974, residues 34-943: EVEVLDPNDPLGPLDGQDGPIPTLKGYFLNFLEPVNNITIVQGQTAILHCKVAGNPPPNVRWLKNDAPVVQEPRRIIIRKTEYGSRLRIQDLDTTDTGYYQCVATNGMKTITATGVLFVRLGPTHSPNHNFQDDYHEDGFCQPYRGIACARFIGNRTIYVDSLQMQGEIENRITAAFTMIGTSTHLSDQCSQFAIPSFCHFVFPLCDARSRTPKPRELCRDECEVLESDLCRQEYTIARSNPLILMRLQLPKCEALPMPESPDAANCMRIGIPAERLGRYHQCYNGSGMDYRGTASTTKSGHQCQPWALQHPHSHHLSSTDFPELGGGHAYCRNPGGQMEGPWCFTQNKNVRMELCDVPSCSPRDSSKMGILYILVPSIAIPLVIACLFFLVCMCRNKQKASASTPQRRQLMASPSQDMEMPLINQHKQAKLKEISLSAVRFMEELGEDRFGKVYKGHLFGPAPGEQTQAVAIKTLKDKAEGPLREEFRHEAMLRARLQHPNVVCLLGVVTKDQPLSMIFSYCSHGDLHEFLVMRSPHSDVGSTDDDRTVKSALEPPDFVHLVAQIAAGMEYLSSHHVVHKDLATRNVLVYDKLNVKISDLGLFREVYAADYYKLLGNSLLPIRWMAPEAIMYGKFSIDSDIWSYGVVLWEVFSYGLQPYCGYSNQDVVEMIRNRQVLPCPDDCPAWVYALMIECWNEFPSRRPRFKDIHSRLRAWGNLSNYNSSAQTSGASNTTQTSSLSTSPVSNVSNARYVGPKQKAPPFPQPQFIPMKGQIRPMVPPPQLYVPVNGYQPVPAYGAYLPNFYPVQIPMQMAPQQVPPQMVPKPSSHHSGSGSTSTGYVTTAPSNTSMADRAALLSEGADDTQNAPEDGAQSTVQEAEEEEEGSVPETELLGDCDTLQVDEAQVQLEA
# UniProt Q9NYQ6, residues 21-3014: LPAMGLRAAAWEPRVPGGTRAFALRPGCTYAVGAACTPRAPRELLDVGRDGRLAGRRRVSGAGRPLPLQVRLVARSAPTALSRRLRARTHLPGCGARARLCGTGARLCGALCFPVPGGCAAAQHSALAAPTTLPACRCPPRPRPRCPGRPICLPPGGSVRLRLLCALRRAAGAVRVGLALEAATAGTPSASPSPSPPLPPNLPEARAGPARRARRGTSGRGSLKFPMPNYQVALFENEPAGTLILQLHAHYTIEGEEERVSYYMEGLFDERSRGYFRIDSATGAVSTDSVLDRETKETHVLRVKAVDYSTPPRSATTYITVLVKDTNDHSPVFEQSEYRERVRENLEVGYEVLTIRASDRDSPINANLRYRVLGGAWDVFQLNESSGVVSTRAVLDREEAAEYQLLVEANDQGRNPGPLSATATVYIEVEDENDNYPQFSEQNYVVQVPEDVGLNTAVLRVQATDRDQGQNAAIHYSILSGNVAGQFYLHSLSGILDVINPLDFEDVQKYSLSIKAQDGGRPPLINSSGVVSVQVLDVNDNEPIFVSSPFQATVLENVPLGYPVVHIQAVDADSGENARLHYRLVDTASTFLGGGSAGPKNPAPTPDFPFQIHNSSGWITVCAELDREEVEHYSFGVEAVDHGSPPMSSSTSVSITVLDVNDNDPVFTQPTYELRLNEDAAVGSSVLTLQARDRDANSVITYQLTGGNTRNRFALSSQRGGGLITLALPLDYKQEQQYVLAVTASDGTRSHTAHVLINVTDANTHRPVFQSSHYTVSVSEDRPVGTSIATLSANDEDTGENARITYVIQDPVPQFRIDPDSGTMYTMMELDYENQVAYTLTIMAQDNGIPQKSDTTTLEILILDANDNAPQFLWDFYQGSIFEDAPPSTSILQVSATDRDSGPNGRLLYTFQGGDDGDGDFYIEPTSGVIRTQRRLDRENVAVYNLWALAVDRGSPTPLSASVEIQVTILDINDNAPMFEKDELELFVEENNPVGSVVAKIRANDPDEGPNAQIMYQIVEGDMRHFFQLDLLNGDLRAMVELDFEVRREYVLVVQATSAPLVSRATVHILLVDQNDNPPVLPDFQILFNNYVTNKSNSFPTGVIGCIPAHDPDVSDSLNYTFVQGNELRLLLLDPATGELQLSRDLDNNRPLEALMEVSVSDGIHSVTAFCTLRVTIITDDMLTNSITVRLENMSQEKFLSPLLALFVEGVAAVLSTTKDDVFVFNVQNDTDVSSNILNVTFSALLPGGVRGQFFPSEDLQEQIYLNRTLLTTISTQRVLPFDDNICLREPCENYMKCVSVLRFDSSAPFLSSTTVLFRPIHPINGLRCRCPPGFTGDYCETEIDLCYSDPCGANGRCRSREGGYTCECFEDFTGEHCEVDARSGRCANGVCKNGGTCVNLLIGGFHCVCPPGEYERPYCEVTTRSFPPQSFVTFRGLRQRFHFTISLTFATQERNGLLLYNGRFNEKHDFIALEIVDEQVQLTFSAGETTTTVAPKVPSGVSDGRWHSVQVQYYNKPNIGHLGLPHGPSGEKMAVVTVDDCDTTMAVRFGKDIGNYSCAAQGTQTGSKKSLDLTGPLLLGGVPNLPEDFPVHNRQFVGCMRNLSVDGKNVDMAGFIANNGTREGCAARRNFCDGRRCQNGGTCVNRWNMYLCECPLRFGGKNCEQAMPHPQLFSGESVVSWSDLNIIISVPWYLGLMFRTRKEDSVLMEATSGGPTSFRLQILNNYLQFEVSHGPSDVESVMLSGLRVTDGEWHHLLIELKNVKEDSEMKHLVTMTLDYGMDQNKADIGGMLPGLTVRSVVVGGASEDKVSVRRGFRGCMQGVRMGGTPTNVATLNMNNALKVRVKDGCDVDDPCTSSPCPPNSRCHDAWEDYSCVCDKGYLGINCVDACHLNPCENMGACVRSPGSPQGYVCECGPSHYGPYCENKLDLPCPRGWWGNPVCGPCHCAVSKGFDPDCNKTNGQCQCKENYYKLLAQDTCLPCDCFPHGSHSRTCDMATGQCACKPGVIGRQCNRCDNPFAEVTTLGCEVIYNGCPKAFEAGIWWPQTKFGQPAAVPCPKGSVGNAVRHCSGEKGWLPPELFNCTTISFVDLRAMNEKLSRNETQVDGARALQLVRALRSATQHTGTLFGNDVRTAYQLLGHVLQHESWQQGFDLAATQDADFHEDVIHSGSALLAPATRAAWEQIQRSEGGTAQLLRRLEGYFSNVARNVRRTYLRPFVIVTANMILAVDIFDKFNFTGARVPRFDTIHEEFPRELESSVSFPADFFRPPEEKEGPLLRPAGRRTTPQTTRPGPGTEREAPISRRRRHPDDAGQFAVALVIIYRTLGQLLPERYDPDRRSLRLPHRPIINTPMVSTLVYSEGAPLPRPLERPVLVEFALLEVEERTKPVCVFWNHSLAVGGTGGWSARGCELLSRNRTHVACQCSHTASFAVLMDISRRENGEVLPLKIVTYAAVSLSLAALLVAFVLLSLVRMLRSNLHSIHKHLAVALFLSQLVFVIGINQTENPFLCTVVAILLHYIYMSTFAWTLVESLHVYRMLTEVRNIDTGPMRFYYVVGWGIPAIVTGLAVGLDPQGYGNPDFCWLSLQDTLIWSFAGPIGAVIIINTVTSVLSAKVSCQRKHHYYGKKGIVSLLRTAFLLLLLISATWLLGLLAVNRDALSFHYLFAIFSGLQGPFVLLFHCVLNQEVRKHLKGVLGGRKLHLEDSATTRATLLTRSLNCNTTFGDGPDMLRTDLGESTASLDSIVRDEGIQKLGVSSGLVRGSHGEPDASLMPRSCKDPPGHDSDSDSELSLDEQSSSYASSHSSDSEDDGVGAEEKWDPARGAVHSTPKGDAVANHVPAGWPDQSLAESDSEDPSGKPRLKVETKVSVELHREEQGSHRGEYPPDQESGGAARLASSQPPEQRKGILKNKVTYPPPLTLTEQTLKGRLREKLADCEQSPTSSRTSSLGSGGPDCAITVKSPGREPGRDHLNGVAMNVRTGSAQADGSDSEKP
# UniProt O14641: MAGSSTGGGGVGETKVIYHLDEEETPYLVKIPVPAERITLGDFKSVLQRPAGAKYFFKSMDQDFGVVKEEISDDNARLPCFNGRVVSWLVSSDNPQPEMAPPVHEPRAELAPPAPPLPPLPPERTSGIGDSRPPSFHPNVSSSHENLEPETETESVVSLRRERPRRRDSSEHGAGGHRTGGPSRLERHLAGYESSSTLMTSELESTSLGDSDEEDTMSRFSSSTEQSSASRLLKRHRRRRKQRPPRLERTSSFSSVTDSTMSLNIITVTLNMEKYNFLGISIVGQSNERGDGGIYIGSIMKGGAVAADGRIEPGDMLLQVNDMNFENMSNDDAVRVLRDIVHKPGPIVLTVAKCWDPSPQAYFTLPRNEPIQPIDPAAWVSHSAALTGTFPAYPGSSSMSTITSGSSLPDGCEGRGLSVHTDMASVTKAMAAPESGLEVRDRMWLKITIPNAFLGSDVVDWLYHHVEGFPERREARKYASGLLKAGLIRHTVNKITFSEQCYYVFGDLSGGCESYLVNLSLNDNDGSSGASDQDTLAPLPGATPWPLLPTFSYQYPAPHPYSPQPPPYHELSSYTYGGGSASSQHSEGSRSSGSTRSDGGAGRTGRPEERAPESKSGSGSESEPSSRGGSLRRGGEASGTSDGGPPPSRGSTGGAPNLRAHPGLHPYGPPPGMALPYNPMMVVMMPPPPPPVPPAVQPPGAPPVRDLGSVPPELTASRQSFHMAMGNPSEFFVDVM
# UniProt P35222: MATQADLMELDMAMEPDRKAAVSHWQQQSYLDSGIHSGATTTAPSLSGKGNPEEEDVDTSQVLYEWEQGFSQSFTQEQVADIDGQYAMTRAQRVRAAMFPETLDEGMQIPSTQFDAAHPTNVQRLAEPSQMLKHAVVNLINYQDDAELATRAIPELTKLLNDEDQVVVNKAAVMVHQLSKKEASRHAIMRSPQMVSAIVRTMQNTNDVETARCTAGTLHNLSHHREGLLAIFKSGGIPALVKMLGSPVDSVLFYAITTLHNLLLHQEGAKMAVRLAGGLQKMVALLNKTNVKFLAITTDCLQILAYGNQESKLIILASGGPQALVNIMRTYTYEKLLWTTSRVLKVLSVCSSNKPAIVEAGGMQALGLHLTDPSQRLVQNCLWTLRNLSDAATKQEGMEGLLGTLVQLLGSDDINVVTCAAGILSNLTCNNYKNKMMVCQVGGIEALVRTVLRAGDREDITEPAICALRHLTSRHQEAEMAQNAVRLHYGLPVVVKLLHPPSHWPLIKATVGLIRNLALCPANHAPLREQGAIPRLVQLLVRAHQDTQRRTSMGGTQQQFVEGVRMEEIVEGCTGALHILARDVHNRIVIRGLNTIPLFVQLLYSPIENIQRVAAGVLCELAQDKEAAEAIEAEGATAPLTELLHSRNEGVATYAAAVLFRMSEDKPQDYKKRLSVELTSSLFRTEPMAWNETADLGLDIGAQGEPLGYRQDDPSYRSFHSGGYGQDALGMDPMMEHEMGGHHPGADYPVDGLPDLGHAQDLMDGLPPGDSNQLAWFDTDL
# Molecular target: T1, Nkd1-BirA* (murine) (UniProt Q99MH6)
# T1 sequence: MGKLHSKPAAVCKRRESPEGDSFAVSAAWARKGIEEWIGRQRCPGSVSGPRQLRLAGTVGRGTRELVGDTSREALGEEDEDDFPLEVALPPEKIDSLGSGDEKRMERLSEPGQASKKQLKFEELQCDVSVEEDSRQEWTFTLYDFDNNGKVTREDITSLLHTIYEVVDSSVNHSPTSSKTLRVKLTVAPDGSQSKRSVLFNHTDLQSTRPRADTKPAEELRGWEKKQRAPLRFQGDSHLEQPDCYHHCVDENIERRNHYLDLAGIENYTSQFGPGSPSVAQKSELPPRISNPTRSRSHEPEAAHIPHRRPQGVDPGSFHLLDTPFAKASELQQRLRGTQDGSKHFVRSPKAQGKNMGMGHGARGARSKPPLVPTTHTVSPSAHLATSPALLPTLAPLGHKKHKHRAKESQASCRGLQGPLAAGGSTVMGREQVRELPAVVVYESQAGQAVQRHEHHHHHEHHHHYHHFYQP
# Assay: proximity labelling; BioIP: BioID streptavidin pull-down from cells with stably integrated baits, analysed by SDS-PAGE and blot for endogenous p62
row,Substance,binding
1,p62 (endogenous) (from UniProt Q13501 1-440),binds

# Molecular target: T1, Nkd1-BirA* (murine)
# Assay: proximity labelling; BioID with mass spectrometry; BirA* baits stably integrated in Flp-In-T-REx-293 cells, tetracycline-induced, Wnt3a-conditioned media and 50 μM biotin for 12 hr; streptavidin pull-down; hits specific if counts >5 fold over GFP-BirA*; hits may be direct binders or vicinal …
row,Substance,binding
1,p62 (endogenous) (from UniProt Q13501 1-440),binds
2,Notch1 (from UniProt P46531 19-2555) (receptor),binds
3,Axin1 (endogenous) (from UniProt O15169 1-862),binds
4,ROR2 (from UniProt Q01974 34-943) (receptor),binds
5,LRP5 (from UniProt O75197 32-1615) (receptor),binds
6,CELSR1 (from UniProt Q9NYQ6 21-3014) (receptor),binds
7,Notch2 (from UniProt Q04721 26-2471) (receptor),binds
8,DVL2 (endogenous) (from UniProt O14641 1-736),binds
9,β-catenin (from UniProt P35222 1-781),binds
